Earlier results in patent US6596759B2, “Medicament for treatment of irritable bowel syndrome” (Mitsubishi Chemical Corporation, priority 1997, dated 2003).
Some of these results come from one statement about several compounds together.

Conditions: in vivo; cited from earlier work

Q: Which Anti-conflict action does the source give for `c1ccc2c(c1)OC[C@H](CNCCCOc1ccc3c(c1)OCO3)O2` [Compound No. 1, 5-[3 [(2S)-(1,4-benzodioxan-2-ylmethyl)amino]propoxy]-1,3-benzo-dioxol] here?
A: have an anti-conflict action
